Literature values as cited in publication PMC8983078 (Drug Discovery Today, 2022).

Assays:
[1] = tested on: Middle East respiratory syndrome (MERS)-CoV; conditions: cited from earlier work
SARS-CoV-1 = conditions: cited from earlier work

Cc1ccc(NC(=O)c2ccc(CN3CCN(C)CC3)cc2)cc1Nc1nccc(-c2cccnc2)n1 [Imatinib]
antiviral activity against MERS-CoV [1]: antiviral activity | antiviral activity against SARS-CoV-1 (SARS-CoV-1): antiviral activity
